Laboratory results reported in PMC7862700.
The entries are a selection whose mix differs from that of the whole data set. For some of these results: At the low end of the ranking the order means little. This is one part of the list. For some of these results: The exact form of the protein is not confirmed.

By UniProt entry, the sequences of proteins in these tests, tags left out. Where a name states a change or a piece, a line headed by the entry shows the natural chain unless it says otherwise.
UniProt P32519: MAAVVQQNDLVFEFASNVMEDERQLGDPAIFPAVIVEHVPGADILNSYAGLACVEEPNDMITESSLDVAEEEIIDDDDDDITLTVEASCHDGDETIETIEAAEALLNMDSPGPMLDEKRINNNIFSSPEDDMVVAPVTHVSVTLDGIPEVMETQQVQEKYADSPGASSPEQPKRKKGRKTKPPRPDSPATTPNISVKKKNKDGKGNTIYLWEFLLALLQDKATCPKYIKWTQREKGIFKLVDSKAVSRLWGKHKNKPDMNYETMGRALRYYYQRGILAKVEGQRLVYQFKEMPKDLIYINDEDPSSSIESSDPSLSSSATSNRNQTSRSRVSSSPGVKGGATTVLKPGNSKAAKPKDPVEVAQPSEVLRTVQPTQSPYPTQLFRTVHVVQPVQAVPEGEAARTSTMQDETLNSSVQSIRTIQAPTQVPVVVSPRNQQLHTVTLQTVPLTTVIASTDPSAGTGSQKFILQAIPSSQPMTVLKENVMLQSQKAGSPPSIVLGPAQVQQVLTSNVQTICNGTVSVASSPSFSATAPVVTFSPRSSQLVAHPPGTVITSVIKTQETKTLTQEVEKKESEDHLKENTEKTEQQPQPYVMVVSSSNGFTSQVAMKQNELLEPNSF
UniProt P50549: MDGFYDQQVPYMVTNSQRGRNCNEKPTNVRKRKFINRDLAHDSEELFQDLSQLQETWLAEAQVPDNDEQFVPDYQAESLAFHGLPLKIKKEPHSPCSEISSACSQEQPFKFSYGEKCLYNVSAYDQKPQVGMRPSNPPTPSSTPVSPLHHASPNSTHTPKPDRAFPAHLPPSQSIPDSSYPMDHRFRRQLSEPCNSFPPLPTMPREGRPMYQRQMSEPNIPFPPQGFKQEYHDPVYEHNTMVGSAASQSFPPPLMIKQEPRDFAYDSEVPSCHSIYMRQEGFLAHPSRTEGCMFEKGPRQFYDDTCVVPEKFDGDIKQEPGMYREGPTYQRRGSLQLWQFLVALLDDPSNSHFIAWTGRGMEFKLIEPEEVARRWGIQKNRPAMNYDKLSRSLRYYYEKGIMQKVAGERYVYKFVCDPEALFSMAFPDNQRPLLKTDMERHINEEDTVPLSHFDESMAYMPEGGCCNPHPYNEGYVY

What was measured:
Assay in all cases: DAPPL (digital affinity profiling via proximity ligation, sequencing)
Settings in all cases: 10 mM Tris-HCl pH 7.5, 50 mM NaCl, 1 mM DTT, 4% glycerol, room temperature, 30 min; GST-TFs on glutathione beads, 16-mer random dsDNA library, 0.1% …; high values mean tight binding; double strand, one strand shown; scale: fold enrichment (6-mer frequency, TF over GST control)
[1] = target: T1, ERG (UniProt P11308)
T1 sequence: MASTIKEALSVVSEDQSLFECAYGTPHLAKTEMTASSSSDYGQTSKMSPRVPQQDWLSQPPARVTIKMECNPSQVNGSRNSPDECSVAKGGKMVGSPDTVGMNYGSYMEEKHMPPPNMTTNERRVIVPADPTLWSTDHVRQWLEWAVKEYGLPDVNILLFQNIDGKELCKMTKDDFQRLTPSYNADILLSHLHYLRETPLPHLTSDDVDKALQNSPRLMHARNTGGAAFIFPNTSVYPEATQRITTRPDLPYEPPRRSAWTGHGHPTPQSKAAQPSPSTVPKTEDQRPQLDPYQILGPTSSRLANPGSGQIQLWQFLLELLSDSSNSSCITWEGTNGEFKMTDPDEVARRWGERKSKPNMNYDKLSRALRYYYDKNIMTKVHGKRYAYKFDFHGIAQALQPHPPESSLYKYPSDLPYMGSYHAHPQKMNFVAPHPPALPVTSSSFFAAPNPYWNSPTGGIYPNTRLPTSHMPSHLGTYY

[2] = target: ELF1 (UniProt P32519)
[3] = target: T2, ELK4 (UniProt P28324-2)
T2 sequence: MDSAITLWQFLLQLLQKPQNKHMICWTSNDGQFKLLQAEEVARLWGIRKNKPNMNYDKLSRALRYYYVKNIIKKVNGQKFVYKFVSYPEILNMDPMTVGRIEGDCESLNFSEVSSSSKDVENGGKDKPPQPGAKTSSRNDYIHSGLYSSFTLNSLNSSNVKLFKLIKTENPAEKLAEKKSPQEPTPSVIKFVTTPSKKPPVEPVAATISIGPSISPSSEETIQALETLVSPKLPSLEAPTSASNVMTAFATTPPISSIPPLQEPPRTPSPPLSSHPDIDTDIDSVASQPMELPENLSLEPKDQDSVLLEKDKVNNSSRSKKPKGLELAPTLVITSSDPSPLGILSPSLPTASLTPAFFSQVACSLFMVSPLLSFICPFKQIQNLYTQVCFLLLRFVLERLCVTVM

[4] = target: T3, ETV4 (UniProt P43268)
T3 sequence: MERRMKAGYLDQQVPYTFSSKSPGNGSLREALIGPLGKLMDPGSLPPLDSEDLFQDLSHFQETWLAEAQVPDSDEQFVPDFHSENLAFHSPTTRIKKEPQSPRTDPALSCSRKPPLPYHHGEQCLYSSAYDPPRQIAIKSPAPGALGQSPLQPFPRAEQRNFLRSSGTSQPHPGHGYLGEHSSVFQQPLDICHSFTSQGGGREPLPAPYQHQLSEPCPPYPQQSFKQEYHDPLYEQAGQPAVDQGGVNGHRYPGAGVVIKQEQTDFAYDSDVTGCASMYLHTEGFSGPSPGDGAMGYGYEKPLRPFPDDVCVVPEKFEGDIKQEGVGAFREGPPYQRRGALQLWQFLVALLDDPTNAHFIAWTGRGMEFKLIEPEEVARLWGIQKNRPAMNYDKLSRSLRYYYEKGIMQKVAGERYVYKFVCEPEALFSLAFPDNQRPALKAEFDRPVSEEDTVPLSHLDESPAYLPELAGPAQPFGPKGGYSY

[5] = target: ETV1 (UniProt P50549)
[6] = target: T4, ERF (UniProt P50548)
T4 sequence: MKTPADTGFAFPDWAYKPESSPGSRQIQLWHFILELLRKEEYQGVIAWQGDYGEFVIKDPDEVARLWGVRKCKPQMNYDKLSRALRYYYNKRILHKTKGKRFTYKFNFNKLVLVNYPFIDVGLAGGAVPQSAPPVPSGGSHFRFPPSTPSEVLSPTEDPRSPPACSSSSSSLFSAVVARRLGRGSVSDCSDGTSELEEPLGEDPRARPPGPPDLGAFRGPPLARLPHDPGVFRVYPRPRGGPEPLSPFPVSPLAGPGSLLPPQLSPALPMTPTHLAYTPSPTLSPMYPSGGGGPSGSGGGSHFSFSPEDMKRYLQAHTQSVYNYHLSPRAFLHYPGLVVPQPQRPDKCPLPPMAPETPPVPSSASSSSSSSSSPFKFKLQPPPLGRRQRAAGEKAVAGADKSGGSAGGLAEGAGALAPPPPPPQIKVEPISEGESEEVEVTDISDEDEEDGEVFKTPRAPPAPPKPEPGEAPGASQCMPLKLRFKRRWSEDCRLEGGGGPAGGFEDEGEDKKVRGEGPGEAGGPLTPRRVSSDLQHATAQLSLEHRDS

Sequence	binding signal [1]	binding signal [2]	binding signal [3]	binding signal [4]	binding signal [5]	binding signal [6]
TCGTCG	0.889	0.924	0.944	0.864	0.957	0.939
AGAGAT	0.934	0.897	0.95	0.912	0.902	0.883
GAAGGT	0.845	0.892	0.95	0.869	0.878	0.922
TGTAGA	0.912	0.962	0.949	0.935	0.911	0.961
CGGCAC	0.999	0.902	0.929	0.994	0.981	0.957
CGAACG	0.983	0.974	0.901	0.985	0.989	1.11
GCAGAT	0.931	0.941	1.04	0.963	0.914	0.909
AGGCTA	0.853	0.987	0.896	0.896	0.905	0.887
TAGAGA	0.788	0.847	0.807	0.826	0.814	0.794
AGCATG	0.94	0.897	0.936	0.994	0.951	0.911
AACTGT	0.948	1.02	0.947	0.975	0.954	0.982
GCAGCC	1.04	0.993	1.11	0.943	0.927	0.984
GAAGAT	0.928	0.865	0.951	0.936	0.937	0.94
CATCGT	0.884	0.901	0.971	0.938	0.851	0.972
CGAAGA	0.785	0.762	0.754	0.793	0.821	0.82
CAGATA	0.961	0.933	0.945	0.93	0.978	0.926
TCAGAC	0.846	0.884	0.868	0.917	0.895	0.933
GCGCGT	0.795	0.848	0.913	0.802	0.874	0.841
GAGCTT	0.976	0.957	0.78	1.02	0.923	0.98
ATAGGG	0.983	0.993	1.06	0.943	0.983	1.14
TAAGAG	0.941	0.912	0.871	0.869	0.9	0.951
CGAGTA	0.807	0.876	0.881	0.823	0.879	0.915
AAGGCC	0.914	0.947	0.857	0.886	0.885	0.887
AGAATC	0.966	0.994	0.997	0.877	0.938	0.988
GACGTT	0.975	0.964	0.982	0.933	0.869	0.857
TGAAGG	0.958	0.944	0.958	0.882	0.929	0.917
GGATCA	0.835	0.779	0.846	0.785	0.829	0.823

Sequence	binding signal [1]	binding signal [2]	binding signal [3]	binding signal [4]	binding signal [5]	binding signal [6]
GCCCGG	0.957	0.981	0.87	0.967	0.99	0.85
TACGGG	0.923	0.952	0.897	0.997	0.994	–
CCAAGA	0.879	0.93	0.886	0.858	0.888	–
GGGATT	0.809	0.872	0.886	0.809	0.906	0.797
ACAAGT	0.877	0.958	0.892	0.869	0.905	0.938
TTAAGA	0.975	1.05	0.981	0.973	0.97	–
AGGAAT	0.791	0.745	0.728	0.786	0.745	0.833
ACGAAG	0.976	0.908	0.964	0.905	0.925	–
GTAGAT	0.964	0.951	1.01	0.897	0.912	–
AGATGT	0.904	0.936	0.926	0.92	0.829	0.943
GTTAGC	0.879	0.972	0.977	0.941	0.913	–
TAGCGC	0.99	0.99	0.836	1.04	1.07	–
AGTTTT	0.94	0.963	0.958	0.971	0.963	–
GCGAAC	0.904	0.91	0.827	0.887	0.908	–
CAGTAT	0.935	0.99	1.06	0.953	0.921	–
CTACAC	1.34	1.33	1.23	1.35	1.28	–
GGAATA	0.954	0.933	0.879	0.922	0.908	–
AGTACC	0.977	0.901	0.958	0.931	0.977	0.949
GTGCCG	0.941	0.929	0.921	0.895	0.939	0.791
GTACAG	0.95	0.954	0.969	0.929	0.937	–
CTGTAG	0.931	0.918	0.996	1	0.969	–
TGATTG	1.08	1.06	0.97	1.09	1.1	–
GTATCG	0.971	0.949	0.954	0.868	0.955	0.91
ACATAG	0.976	1.07	0.978	0.999	0.997	–
CAGATC	0.879	0.938	0.876	0.935	0.984	0.906
TCGCGA	0.897	0.886	0.915	0.882	0.919	0.821
GCTAGA	0.961	1.01	0.993	0.963	0.922	–

Shown field by field: entries from further up.
GCGAAC
  binding signal [1]: 0.904
  binding signal [2]: 0.91
  binding signal [3]: 0.827
  binding signal [4]: 0.887
  binding signal [5]: 0.908
CAGTAT
  binding signal [1]: 0.935
  binding signal [2]: 0.99
  binding signal [3]: 1.06
  binding signal [4]: 0.953
  binding signal [5]: 0.921
CTACAC
  binding signal [1]: 1.34
  binding signal [2]: 1.33
  binding signal [3]: 1.23
  binding signal [4]: 1.35
  binding signal [5]: 1.28
